Experimental findings from PubChem BioAssay AID1347423 (Functional Genomics Laboratory (NCATS/FGL), 2020) are described below.

Hit rate of the full screen: of about 52,000 sequences, about 210 (0.4%) were called active.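 How the source made its calls: active means gene whose silencing raises cell survival under the drug, median off-target-corrected z-score across its silencing RNAs 2 or more; inactive means the rest.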 The list shows a part of the results.

This assay in a line: Resistance to Poly (ADP-Ribose) Polymerase inhibitor: Gene Identification via Genome-wide siRNA Screen. Conditions: mouse BRCA2 R2336H ES cells, olaparib, CellTiter-Glo viability; stronger effect = higher value. Summed up: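 Genome-wide siRNA screen (3 siRNAs/gene, 20 nM) in mouse ES cells carrying hypomorphic BRCA2 R2336H; olaparib 500 nM added 48 h post-transfection, CellTiter-Glo viability 72 h later. Normalized to plate-median negative control; MAD z-scores, gene median, seed-adjusted.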
Background: In ATP-based viability assays light output follows the ATP content of the culture.
In the case of GGCAAACACUACGGCAUCATT against Mrpl27, the z-score is inactive: 0.668.

In the case of GUAUUUUACACUCUUGUGGTT against Olfr898, the z-score was inactive: -0.721.

For GCUAUGCUUUUUUGCUACUTT against Olfr972, the z-score is inactive: -0.496.

As for CCCAGCUCACACAAACUCATT against LOC434377, the z-score was inactive: -0.485.

As to CCAGCAGCCUAAAAGCAGUTT against Ppard, the z-score was inactive: 0.798.

Regarding GGGACCAUCUUCCUGAUUGTT against Cdh22, the z-score is inactive: -0.202.

As for GCUAGAAUUCAUGUUUCGUTT against Dgkg, the z-score was inactive: 1.3.

On to CGAGAACCAUAUCUCACUUTT against Ptpn2, for which the z-score was inactive: 0.575.

On to GCUGGUACGCCCACCAUAUTT against Foxi1, for which the z-score is inactive: 0.18.

As to GGAGAAUCUGGACAAUGACTT against Dvl3, the z-score was inactive: -1.69.

For the sequence GCCAACAGUACUUUGUUAATT against Chordc1, the z-score is inactive: -0.278.

Regarding “GGCCGCUUUUAUUUAUAAUTT against 4732460C16Rik”, the z-score was inactive: 0.984.

Take GGUUUUCUGGUCCAUUAUATT against Olfr741: the z-score was inactive: 2.4.

On to GGAGGCUGAGUAUUGGCUUTT against Pi4k2b, for which the z-score is inactive: 0.48.

Take CGAUACACUGGUGCCCUAUTT against AV028368: the z-score was inactive: -1.73.

As for GGUCCAGAAUCAGAGGAGUTT against Trim10, the z-score was inactive: -0.127.

In the case of GCCAAAUUUGUCAUCCACUTT against H2afy3, the z-score was inactive: 0.296.

As for GGCCUUGAUUCAAUUCAACTT against Tgm6, the z-score was inactive: -0.154.

As to GGCUUGUGGUCAUCUCAUGTT against Olfr282, the z-score was inactive: 0.742.

In the case of “GGAUGCACUCAAGAAUUACTT against 4933417K04Rik”, the z-score was inactive: 0.401.

As to “GGCCUUAUAACUCAUAUAUTT against 2210010B09Rik”, the z-score was inactive: 0.328.

For the sequence GGAGAAAAUCAAGGUGUUATT against Cutl2, the z-score is inactive: 0.575.

On to GCUCAUGAGUAGCUUAGUUTT against Mtch2, for which the z-score was inactive: -0.36.

In the case of GGCCUGCCUGAAAAAAAAATT against Map1lc3a, the z-score is inactive: 0.202.

Consider “GGCAUCAUCUCAGUCAUGUTT against 2410015M20Rik”, for which the z-score is inactive: -2.2.

Turning to “GCUCAUCUGUGAAUACAAUTT against 5730410I19Rik”, the z-score is inactive: -0.568.

On to GGCCUACAGGACAAAGUUUTT against Comt, for which the z-score is inactive: -0.624.

For the sequence GGAUUGAAAGCUACUCGUGTT against Maf1, the z-score is inactive: -0.911.

With GGGUCUCUGGCUUCAUUUUTT against Socs1, the z-score is inactive: 0.00862.
